PubChem BioAssay AID743121, NCATS – 2013
Shown is an unselected part of about 26,000 reagents. 167 of them (0.63%) count as active. 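Calls are per gene from RSA p-values that are not deposited; an individual active-marked siRNA can sensitise only weakly.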 The numbers tell different reagents against one gene apart. Further read-outs or replicates are left out here. No sequences are given here.

Test: 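Knock-downs that sensitise breast cancer cells to camptothecin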 (primary screen)
Cells: MDA-MB-231 cells, a human breast cancer line
Reagents: single siRNA against human genes, 20 nM siRNA (0.8 pmol per well)
Duration: 120 h (drug added 48 h after transfection, read 72 h later)
Challenge: camptothecin 20 nM (about EC30) for 72 h; vehicle 0.1% DMSO in parallel plates
Measured: 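CellTiter-Glo ATP signal, scaled to control siRNA as percent viability; sensitisation given as log2 of untreated divided by camptothecin-treated viability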
Scale: log2 vehicle/camptothecin viability: higher = stronger sensitisation to camptothecin
Rule for the call: 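Active genes have an RSA gene-level p-value below 0.001, computed from the ratios of their separate siRNAs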

Silencing of BPGM #1 resulted in: log2 vehicle/camptothecin viability -0.0763; inactive.
BPGM #2 showed log2 vehicle/camptothecin viability 0.158; inactive.
BPGM #3 showed log2 vehicle/camptothecin viability -0.396; inactive.
Knock-down of BPGM #4 resulted in: log2 vehicle/camptothecin viability -0.443; inactive.
For DDR1 #1, the entry reads log2 vehicle/camptothecin viability -0.0832; inactive.
For DDR1 #2, the values are log2 vehicle/camptothecin viability -0.704; inactive.
For DDR1 #3, the entry reads log2 vehicle/camptothecin viability 0.596; inactive.
Against DDR1 #4 the deposit lists log2 vehicle/camptothecin viability 1.09; inactive.
After knock-down of MARK1 #1, the record shows log2 vehicle/camptothecin viability -0.304; inactive.
MARK1 #2 showed log2 vehicle/camptothecin viability -0.173; inactive.
Silencing of MARK1 #3 resulted in: log2 vehicle/camptothecin viability -0.0176; inactive.
After knock-down of MARK1 #4, the screen gave log2 vehicle/camptothecin viability -0.182; inactive.
For FKBP7 #1, the entry reads log2 vehicle/camptothecin viability -0.0291; inactive.
Against FKBP7 #2 the deposit lists log2 vehicle/camptothecin viability -0.461; inactive.
Knock-down of FKBP7 #3 resulted in: log2 vehicle/camptothecin viability -0.174; inactive.
For FKBP7 #4, the values are log2 vehicle/camptothecin viability 0.0551; inactive.
Silencing of DPEP2 #1 came out at: log2 vehicle/camptothecin viability -0.104; inactive.
Knock-down of DPEP2 #2 gave: log2 vehicle/camptothecin viability 0.118; inactive.
Depletion of DPEP2 #3 resulted in: log2 vehicle/camptothecin viability -0.28; inactive.
For DPEP2 #4 the deposit lists log2 vehicle/camptothecin viability -0.618; inactive.
With knock-down of MASP1 #1, the screen gave log2 vehicle/camptothecin viability -0.475; inactive.
Depletion of MASP1 #2 resulted in: log2 vehicle/camptothecin viability -0.285; inactive.
With knock-down of MASP1 #3, the screen gave log2 vehicle/camptothecin viability -0.154; inactive.
After knock-down of MASP1 #4, the record shows log2 vehicle/camptothecin viability -0.419; inactive.

3 successive records from above:
DPEP2 #2 — log2 vehicle/camptothecin viability = 0.118; Outcome = inactive
DPEP2 #3 — log2 vehicle/camptothecin viability = -0.28; Outcome = inactive
DPEP2 #4 — log2 vehicle/camptothecin viability = -0.618; Outcome = inactive
